According to US20260227398A1, “CD62L (L-SELECTIN) APTAMER AND ITS APPLICATION FOR T CELL ISOLATION” (University of Washington, published 2026):
Results from cells or extracts need not show a direct contact. For some assays here: A negative result means that nothing was seen under these conditions. For some assays here: Construct, isoform or probe ends are uncertain for at least one entry.

Columns and labels:
[1] = biological target: L-selectin (CD62L) on primary CD4+ T cells (Homo sapiens) (UniProt P14151); assay: flow cytometry; conditions: random aptamer control did not bind CD4+ T cells; protein on the cell surface; protein details: endogenous, primary CD4+ T cells; single-stranded DNA
[2] = biological target: L-selectin (CD62L) in J.RT3-T3.5 membrane protein extract (Homo sapiens) (UniProt P14151); assay: pull-down; conditions: biotinylated aptamer pulldown, CD62L identified by LC-MS/MS, not in biotin-saturated bead control; protein in an extract; single-stranded DNA
[3] = biological target: T1, L-selectin (CD62L) on J.RT3-T3.5 cells (Homo sapiens) (UniProt P14151); assay: flow cytometry; conditions: protein on the cell surface, protein details: endogenous, J.RT3-T3.5 human T-ALL line, single-stranded DNA
T1 sequence: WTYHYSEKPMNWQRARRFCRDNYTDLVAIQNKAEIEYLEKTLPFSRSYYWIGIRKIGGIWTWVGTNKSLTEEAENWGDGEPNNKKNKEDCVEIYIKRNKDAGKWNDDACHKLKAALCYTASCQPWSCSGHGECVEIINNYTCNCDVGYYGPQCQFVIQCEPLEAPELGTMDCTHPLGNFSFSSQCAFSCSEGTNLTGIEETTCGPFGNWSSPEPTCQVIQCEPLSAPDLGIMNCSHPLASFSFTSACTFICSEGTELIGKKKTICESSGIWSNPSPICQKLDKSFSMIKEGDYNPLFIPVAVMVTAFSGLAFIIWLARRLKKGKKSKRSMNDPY

Question: Does “ATCCAGAGTGACGCAGCAAATTCCAAACTCGAGTAAGCGTAGAGCCTCTCATCGCCTCAATAATGGACACGGTGGCTTAGT [Random aptamer (RAN)]” bind [1]?
Answer: no binding

Question: Does “ATCCAGAGTGACGCAGCATAGTCAAGGCGATAGACGAAAAACATTGTTTTCCTGGAAGGCCCAGAATCTGTGGACACGGTGGCTTAGT [CD62LApt.88 (A1, L-SA.88)]” bind [2]?
Answer: binds

Question: Does “CCAGAGTGACGCAGCATAGTCAAGGCGATAGACGAAAAACATTGTTTTCCTGGAAGGCCCAGAATCTGTGG [CD62LApt.71]” bind ([3]; appears to retain binding, label: 5' fluorescein, variant of CD62LApt.88 (A1, L-SA.88))?
Answer: binds

Question: Does “CTGGGCGATAGACGAAAAACATTGTTTTCCTGGAAGGCCCAG [CD62LApt.42]” bind ([3]; high binding not observed for the 42-mer, label: 5' fluorescein, variant of CD62LApt.88 (A1, L-SA.88))?
Answer: no binding

Question: Does “TTTTTTTTTTTTTTTTAATTTAGTCAAGGCGATAGACGAAAAACATTGTTTTCCTGGAAGGCCCAGAATCTG [CD62LApt.52.s20]” bind ([3]; affinity minimally affected by spacer, label: 5' biotin, variant of CD62LApt.52)?
Answer: binds
